The supplement of paper PMC10849652
Some of the results follow.

Protein sequences, listed by entry. Tags and fused reporters are not part of them. Lines headed by an entry give the natural chain unless they say otherwise; changes in a name come on top.
UniProt Q86VD7: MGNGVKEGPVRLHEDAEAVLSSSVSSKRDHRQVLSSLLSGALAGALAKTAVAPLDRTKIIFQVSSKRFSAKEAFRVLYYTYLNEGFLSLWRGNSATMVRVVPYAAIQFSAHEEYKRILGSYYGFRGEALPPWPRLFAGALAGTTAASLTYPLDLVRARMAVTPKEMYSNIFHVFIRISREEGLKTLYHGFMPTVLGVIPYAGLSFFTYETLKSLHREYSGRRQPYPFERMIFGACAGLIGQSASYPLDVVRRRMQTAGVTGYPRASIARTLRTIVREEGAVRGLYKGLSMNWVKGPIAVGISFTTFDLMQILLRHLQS
UniProt Q9Y6M5: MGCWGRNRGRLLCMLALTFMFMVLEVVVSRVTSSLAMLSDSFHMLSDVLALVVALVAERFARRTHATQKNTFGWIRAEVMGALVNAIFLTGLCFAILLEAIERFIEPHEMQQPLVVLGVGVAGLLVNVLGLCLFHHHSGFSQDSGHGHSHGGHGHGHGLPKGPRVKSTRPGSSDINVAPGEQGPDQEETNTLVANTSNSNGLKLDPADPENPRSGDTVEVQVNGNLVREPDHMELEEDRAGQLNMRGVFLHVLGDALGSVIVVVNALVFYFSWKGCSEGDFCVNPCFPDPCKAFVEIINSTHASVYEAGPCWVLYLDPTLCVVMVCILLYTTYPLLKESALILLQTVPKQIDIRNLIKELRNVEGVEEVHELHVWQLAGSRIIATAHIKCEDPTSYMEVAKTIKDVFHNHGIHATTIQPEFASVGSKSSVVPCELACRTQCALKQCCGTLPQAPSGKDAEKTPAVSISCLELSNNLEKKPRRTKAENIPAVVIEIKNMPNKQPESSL
UniProt P11166: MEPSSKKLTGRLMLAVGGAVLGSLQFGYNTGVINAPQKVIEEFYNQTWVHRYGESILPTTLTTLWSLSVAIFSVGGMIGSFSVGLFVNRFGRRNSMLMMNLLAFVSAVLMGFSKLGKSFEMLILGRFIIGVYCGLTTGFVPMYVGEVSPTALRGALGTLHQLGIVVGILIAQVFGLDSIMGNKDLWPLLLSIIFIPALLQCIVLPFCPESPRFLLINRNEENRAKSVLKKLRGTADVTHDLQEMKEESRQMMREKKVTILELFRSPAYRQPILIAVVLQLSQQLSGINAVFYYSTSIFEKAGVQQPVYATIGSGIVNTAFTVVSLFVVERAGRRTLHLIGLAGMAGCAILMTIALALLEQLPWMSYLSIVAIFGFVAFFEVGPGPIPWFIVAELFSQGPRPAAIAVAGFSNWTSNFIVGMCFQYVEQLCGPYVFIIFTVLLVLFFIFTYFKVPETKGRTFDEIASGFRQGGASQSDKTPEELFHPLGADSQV
UniProt P53985: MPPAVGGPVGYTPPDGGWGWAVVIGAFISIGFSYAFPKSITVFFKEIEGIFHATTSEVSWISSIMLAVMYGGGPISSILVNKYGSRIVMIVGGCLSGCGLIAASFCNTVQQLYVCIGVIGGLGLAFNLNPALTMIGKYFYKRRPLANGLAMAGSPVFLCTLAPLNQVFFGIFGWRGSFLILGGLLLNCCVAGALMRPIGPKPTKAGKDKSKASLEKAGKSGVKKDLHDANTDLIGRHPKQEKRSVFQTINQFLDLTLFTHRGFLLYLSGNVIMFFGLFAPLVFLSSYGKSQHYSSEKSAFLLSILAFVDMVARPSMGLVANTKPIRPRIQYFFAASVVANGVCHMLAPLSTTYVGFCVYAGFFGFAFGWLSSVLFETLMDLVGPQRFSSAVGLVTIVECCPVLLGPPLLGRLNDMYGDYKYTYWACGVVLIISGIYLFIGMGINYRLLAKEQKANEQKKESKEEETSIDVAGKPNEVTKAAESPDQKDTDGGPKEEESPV
UniProt Q8N1S5: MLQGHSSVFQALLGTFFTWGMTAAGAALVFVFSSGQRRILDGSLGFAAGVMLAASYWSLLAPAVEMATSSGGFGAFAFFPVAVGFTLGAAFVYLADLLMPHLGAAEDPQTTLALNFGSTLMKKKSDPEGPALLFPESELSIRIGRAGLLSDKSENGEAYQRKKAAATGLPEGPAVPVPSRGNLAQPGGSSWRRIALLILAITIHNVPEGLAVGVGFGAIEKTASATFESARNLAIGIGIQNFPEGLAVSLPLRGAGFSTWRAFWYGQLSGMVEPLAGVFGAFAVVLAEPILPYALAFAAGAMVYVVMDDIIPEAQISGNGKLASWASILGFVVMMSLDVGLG
UniProt P12235: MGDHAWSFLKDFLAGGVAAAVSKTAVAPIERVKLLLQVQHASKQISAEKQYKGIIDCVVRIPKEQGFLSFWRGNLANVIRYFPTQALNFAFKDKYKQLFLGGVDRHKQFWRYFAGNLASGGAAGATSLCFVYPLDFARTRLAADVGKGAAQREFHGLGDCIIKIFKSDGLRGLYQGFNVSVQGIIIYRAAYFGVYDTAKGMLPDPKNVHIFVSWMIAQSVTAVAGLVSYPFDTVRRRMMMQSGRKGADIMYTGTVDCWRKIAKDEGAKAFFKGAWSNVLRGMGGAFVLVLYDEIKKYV
UniProt Q9BV35: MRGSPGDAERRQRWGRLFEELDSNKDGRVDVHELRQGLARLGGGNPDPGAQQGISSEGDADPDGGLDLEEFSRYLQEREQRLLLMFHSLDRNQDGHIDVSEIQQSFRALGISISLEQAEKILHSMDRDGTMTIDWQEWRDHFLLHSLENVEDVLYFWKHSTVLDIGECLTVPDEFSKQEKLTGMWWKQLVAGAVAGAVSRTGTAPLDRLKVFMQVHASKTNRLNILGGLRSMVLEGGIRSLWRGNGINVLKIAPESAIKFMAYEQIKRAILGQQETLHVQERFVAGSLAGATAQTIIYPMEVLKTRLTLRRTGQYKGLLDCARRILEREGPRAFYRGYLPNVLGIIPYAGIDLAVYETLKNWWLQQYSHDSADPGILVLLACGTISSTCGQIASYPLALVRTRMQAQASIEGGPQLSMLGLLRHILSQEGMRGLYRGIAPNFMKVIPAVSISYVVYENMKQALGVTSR
UniProt O75387: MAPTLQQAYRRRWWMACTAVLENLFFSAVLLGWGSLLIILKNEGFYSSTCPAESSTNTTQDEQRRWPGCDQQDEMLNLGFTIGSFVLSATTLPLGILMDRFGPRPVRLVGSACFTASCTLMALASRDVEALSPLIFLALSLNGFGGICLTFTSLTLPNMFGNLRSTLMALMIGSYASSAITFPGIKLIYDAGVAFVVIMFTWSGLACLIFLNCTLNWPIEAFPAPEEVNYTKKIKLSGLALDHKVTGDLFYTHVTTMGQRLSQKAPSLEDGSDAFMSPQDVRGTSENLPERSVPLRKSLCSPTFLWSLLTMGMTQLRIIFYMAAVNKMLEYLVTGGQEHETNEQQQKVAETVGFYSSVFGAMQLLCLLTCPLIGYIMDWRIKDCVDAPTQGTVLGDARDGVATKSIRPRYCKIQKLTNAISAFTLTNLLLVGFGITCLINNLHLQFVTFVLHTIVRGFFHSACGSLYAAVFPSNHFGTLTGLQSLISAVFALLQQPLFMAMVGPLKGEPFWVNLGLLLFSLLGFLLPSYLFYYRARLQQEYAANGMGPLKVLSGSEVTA
UniProt P55011: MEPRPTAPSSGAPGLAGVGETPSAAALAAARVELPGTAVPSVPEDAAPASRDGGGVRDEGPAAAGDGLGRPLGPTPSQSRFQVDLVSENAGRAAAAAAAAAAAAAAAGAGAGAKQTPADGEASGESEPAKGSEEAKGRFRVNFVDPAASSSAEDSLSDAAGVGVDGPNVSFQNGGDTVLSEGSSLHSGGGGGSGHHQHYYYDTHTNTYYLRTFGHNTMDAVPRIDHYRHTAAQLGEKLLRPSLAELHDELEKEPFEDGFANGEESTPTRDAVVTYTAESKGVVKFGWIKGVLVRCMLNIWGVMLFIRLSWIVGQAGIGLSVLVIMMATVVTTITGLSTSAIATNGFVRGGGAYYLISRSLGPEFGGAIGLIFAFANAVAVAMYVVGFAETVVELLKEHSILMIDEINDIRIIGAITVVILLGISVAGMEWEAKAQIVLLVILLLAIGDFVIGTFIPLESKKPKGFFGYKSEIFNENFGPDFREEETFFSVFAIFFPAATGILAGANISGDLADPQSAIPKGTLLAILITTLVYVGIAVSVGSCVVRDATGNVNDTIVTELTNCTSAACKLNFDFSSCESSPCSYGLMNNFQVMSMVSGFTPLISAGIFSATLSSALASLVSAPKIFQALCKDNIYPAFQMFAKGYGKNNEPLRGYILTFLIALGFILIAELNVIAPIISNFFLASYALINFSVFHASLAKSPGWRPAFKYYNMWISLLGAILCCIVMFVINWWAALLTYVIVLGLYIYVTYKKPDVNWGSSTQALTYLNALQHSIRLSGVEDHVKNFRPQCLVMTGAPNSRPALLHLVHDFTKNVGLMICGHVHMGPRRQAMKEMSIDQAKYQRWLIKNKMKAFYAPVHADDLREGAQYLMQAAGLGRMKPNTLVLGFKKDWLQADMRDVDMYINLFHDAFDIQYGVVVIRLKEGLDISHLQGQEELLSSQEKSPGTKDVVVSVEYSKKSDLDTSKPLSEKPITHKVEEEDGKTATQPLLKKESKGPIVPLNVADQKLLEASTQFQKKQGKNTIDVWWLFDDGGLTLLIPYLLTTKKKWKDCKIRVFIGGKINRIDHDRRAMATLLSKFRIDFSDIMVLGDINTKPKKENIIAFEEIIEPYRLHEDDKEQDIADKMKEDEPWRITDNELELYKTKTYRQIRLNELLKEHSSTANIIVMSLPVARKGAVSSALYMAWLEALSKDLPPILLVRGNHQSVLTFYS
UniProt Q96EP9: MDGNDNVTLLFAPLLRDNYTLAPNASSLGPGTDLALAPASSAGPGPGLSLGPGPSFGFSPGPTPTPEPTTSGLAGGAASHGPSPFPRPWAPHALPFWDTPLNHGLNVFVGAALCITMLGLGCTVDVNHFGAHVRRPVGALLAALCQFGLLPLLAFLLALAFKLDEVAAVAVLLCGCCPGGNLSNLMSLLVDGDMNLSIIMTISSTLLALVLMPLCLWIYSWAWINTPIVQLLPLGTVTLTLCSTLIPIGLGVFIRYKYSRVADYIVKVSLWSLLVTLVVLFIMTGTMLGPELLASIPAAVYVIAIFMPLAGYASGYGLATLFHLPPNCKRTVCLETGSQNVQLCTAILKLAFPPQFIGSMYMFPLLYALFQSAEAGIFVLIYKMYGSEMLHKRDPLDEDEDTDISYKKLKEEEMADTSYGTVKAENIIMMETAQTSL
UniProt O60779: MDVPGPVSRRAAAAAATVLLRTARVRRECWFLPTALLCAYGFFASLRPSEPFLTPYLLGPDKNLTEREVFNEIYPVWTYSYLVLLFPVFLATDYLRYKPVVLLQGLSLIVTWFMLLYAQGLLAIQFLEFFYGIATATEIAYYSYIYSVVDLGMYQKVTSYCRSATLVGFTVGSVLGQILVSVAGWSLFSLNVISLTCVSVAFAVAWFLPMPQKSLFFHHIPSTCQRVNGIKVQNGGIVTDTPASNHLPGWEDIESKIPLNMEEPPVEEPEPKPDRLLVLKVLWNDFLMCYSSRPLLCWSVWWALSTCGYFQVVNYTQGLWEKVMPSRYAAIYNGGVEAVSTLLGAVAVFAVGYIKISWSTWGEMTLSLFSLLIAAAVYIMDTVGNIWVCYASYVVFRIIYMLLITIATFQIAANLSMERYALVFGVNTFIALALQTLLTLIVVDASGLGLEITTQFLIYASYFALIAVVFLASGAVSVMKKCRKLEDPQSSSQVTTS
UniProt Q8IVJ1: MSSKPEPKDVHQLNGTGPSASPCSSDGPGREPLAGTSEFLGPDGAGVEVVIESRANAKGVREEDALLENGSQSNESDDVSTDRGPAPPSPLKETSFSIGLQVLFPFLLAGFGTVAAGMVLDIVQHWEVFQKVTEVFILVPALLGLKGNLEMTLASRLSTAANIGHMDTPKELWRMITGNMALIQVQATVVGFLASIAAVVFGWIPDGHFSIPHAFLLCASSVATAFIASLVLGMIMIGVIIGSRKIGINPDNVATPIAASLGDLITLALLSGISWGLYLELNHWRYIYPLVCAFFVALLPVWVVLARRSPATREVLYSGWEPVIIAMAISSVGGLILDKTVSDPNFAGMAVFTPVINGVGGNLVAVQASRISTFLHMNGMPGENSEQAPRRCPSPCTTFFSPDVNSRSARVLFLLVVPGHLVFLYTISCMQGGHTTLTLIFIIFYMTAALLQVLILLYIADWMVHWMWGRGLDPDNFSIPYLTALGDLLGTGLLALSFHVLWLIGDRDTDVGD
UniProt Q969S0: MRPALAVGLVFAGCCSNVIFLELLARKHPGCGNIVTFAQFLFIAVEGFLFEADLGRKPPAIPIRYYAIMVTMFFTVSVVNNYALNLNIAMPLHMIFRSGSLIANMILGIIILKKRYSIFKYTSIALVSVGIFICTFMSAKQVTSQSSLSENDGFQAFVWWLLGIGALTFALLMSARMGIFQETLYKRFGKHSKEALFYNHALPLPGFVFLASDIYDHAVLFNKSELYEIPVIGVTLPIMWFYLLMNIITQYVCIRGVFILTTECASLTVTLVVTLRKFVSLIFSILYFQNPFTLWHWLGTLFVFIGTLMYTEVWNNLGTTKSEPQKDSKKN

How the values were obtained:
Test in all cases: log2 fold change, soluble protein after heating vs DMSO (PISA); higher = thermal stabilisation; K562 cells, 10 uM, 30 min; active = over 0.2 and 3.5 SD of the protein, either way, in both replicates (recomputed)
[1] = compound: COC1=CC=C(C=C1)CN2C=CC3=C2C=C(C=C3)C(=O)NO
Summary of the method: (§1)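 Thermal stability values are relative to control samples and come from duplicates. They are expressed as log2 fold changes. For measurement, K562 cells (2×10^6 cells/mL) received 10 μM compound for 30 min, and aliquots were heated for 3 min over 48°C-58°C, pooled, and extracted at 4°C in PBS with 0.5% NP-40. Soluble protein, the supernatant after 21,000xg for 90 min, was quantified by TMTpro 16plex LC-MS/MS with equalised channel sums.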

filanesib = compound: CON(C)C(=O)N1N=C(c2cc(F)ccc2F)S[C@@]1(CCCN)c1ccccc1 [filanesib]
Summary of the method: as §1

zotarolimus = compound: CO[C@H]1C[C@@H]2CC[C@@H](C)[C@@](O)(O2)C(=O)C(=O)N2CCCC[C@H]2C(=O)O[C@H]([C@H](C)C[C@@H]2CC[C@H](n3cnnn3)[C@H](OC)C2)CC(=O)[C@H](C)/C=C(\C)[C@@H](O)[C@@H](OC)C(=O)[C@H](C)C[C@H](C)/C=C/C=C/C=C/1C [zotarolimus]
Summary of the method: as §1

idasanutlin = compound: COc1cc(C(=O)O)ccc1NC(=O)[C@@H]1N[C@@H](CC(C)(C)C)[C@](C#N)(c2ccc(Cl)cc2F)[C@H]1c1cccc(Cl)c1F [idasanutlin]
Summary of the method: as §1

alisertib = compound: COc1cc(Nc2ncc3c(n2)-c2ccc(Cl)cc2C(c2c(F)cccc2OC)=NC3)ccc1C(=O)O [alisertib]
Summary of the method: as §1

[2] = compound: COc1cc2nc(-c3cc(F)ccc3O)nc(N[C@@H]3CNC[C@H]3C(C)(C)O)c2cc1OC
Summary of the method: as §1

gefitinib = compound: COc1cc2ncnc(Nc3ccc(F)c(Cl)c3)c2cc1OCCCN1CCOCC1 [gefitinib]
Summary of the method: as §1

[3] = compound: COc1cccc2cc(-c3nc([C@H]4CC[C@H](C(=O)O)CC4)n4ncnc(N)c34)[nH]c12
Summary of the method: as §1

lapatinib = compound: CS(=O)(=O)CCNCc1ccc(-c2ccc3ncnc(Nc4ccc(OCc5cccc(F)c5)c(Cl)c4)c3c2)o1 [lapatinib]
Summary of the method: as §1

pictilisib = compound: CS(=O)(=O)N1CCN(Cc2cc3nc(-c4cccc5[nH]ncc45)nc(N4CCOCC4)c3s2)CC1 [pictilisib]
Summary of the method: as §1

Target	log2 fold change [1]	log2 fold change (filanesib)	log2 fold change (zotarolimus)	log2 fold change (idasanutlin)	log2 fold change (alisertib)	log2 fold change [2]	log2 fold change (gefitinib)	log2 fold change [3]	log2 fold change (lapatinib)	log2 fold change (pictilisib)
SLC25A42 (UniProt Q86VD7)	active: 0.241	inactive: -0.011	inactive: 0.058	inactive: 0.047	inactive: 0.012	inactive: -0.029	inactive: 0.063	inactive: 0.043	inactive: 0.084	inactive: -0.003
SLC30A1 (UniProt Q9Y6M5)	inactive: 0.05	inactive: 0.069	inactive: -0.032	inactive: 0.048	inactive: -0.115	inactive: 0.061	inactive: 0.025	inactive: 0.063	inactive: -0.002	inactive: 0.038
SLC2A1 (UniProt P11166)	inactive: 0.002	inactive: 0.006	inactive: -0.011	inactive: -0.006	inactive: -0.104	inactive: 0.055	inactive: -0.026	inactive: 0.068	inactive: -0.019	inactive: 0.042
SLC16A1 (UniProt P53985)	inactive: -0.074	inactive: 0.064	inactive: -0.031	inactive: 0	inactive: -0.05	inactive: 0.064	inactive: 0.028	inactive: 0.146	inactive: -0.046	inactive: -0.009
SLC39A11 (UniProt Q8N1S5)	inactive: -0.014	inactive: -0.01	inactive: -0.078	inactive: -0.056	inactive: -0.113	inactive: -0.04	inactive: 0.001	inactive: 0.047	inactive: -0.038	inactive: -0.117
SLC25A4 (UniProt P12235)	inactive: -0.012	inactive: -0.024	inactive: -0.018	inactive: 0.003	inactive: 0.014	inactive: 0.039	inactive: 0.006	inactive: -0.012	inactive: -0.026	inactive: 0.115
SLC25A23 isoform 3 (UniProt Q9BV35)	inactive: 0.099	inactive: 0.087	inactive: -0.055	inactive: -0.002	inactive: 0.077	inactive: -0.021	inactive: 0	inactive: 0.119	inactive: 0.019	inactive: 0.06
SLC6A9 (UniProt P48067)	inactive: -0.18	inactive: 0.041	inactive: -0.048	inactive: -0.101	inactive: -0.045	inactive: 0.053	inactive: 0.002	inactive: 0.068	inactive: -0.103	inactive: 0.163
SLC43A1 (UniProt O75387)	inactive: -0.037	inactive: 0.052	inactive: -0.082	inactive: -0.061	inactive: 0.005	inactive: 0.065	inactive: 0.047	inactive: 0.054	inactive: -0.045	inactive: 0.118
SLC7A5 (UniProt Q01650)	inactive: 0.004	inactive: -0.025	inactive: -0.013	inactive: 0.026	inactive: 0.008	inactive: -0.1	inactive: -0.065	inactive: 0.068	inactive: 0.051	inactive: 0.067
SLC25A19 (UniProt Q9HC21)	inactive: -0.035	inactive: 0.012	inactive: -0.05	inactive: -0.018	inactive: -0.007	inactive: 0.033	inactive: 0	inactive: 0.065	inactive: -0.007	inactive: -0.081
SLC25A39 (UniProt Q9BZJ4)	inactive: -0.069	inactive: -0.255	inactive: 0.073	inactive: -0.115	inactive: 0.123	inactive: -0.49	inactive: -0.344	inactive: 0.224	inactive: -0.044	inactive: -0.072
SLC19A1 (UniProt P41440)	inactive: 0.047	inactive: -0.164	inactive: -0.106	inactive: 0.023	inactive: -0.034	inactive: 0.003	inactive: 0	inactive: 0.086	inactive: -0.066	inactive: -0.026
SLC27A4 (UniProt Q6P1M0)	inactive: 0.134	inactive: 0.038	inactive: 0.056	inactive: -0.084	inactive: -0.001	inactive: 0.032	inactive: 0.033	inactive: -0.022	inactive: 0.055	inactive: -0.078
SLC12A2 (UniProt P55011)	inactive: -0.01	inactive: 0.013	inactive: 0.018	inactive: -0.026	inactive: -0.046	inactive: 0.068	inactive: 0.017	inactive: 0.047	inactive: -0.001	inactive: -0.013
SLC10A4 (UniProt Q96EP9)	inactive: -0.325	inactive: 0.085	inactive: -0.006	inactive: 0.041	inactive: -0.022	inactive: 0.086	inactive: -0.119	inactive: 0.252	inactive: -0.177	inactive: -0.039
SLC25A46 (UniProt Q96AG3)	inactive: -0.037	inactive: 0.046	inactive: -0.021	inactive: -0.033	inactive: 0.068	inactive: 0.131	inactive: 0.055	inactive: 0.013	inactive: 0.042	inactive: -0.064
SLC39A14 (UniProt Q15043)	inactive: -0.004	inactive: 0.001	inactive: -0.019	inactive: -0.012	inactive: -0.08	inactive: -0.021	inactive: 0.024	inactive: 0.061	inactive: -0.035	inactive: 0.093
SLC25A1 (UniProt P53007)	inactive: 0.035	inactive: 0.015	inactive: -0.01	inactive: -0.049	inactive: -0.089	inactive: -0.051	inactive: -0.002	inactive: 0.03	inactive: 0.009	inactive: -0.122
SLC35B1 isoform 2 (UniProt P78383)	inactive: -0.106	inactive: -0.037	inactive: -0.005		inactive: -0.232		inactive: -0.022	inactive: 0.129		
SLC19A2 (UniProt O60779)	inactive: -0.214	inactive: -0.073	inactive: 0.072	inactive: 0.019		inactive: 0.032	inactive: 0.083		inactive: -0.043	
SLC25A26 (UniProt Q70HW3)	inactive: 0.191	inactive: -0.041	inactive: 0.008	inactive: -0.104	inactive: 0.089		inactive: -0.085	inactive: 0.039		inactive: 0.032
SLC41A1 (UniProt Q8IVJ1)	inactive: 0.541	inactive: -0.256			inactive: -0.029	inactive: -0.289	inactive: 0.208	inactive: 0.011	inactive: 0.427	inactive: -0.119
SLC35B4 (UniProt Q969S0)	inactive: -0.076	inactive: -0.119		inactive: 0.027	inactive: 0.032		inactive: 0.149	inactive: 0.076		
SLC12A5 (UniProt Q9H2X9)	inactive: 0.323	inactive: -0.071	inactive: -0.076	inactive: 0.017	inactive: 0.299	inactive: -0.097		inactive: 0.124	inactive: 0.085	
SLC25A14 isoform 3 (UniProt O95258)	inactive: 0.002		inactive: 0.086	inactive: -0.111	inactive: 0.116	inactive: 0.009	inactive: 0.109	inactive: 0.106	inactive: -0.006	inactive: 0.071
SLC35B3 (UniProt Q9H1N7)	inactive: -0.042	inactive: 0.012	inactive: 0.127	inactive: -0.059	inactive: -0.25		inactive: -0.108	inactive: -0.159		
SLC44A2 isoform 2 (UniProt Q8IWA5)	inactive: 0.018	inactive: 0.048	inactive: -0.028	inactive: 0.026	inactive: -0.118		inactive: 0.002	inactive: 0.057		inactive: 0.13

Whole records as entered above. Values in the order: log2 fold change [1]	log2 fold change (filanesib)	log2 fold change (zotarolimus)	log2 fold change (idasanutlin)	log2 fold change (alisertib)	log2 fold change [2]	log2 fold change (gefitinib)	log2 fold change [3]	log2 fold change (lapatinib)	log2 fold change (pictilisib)
SLC39A11 (UniProt Q8N1S5) is listed with inactive: -0.014	inactive: -0.01	inactive: -0.078	inactive: -0.056	inactive: -0.113	inactive: -0.04	inactive: 0.001	inactive: 0.047	inactive: -0.038	inactive: -0.117
SLC25A46 (UniProt Q96AG3) is listed with inactive: -0.037	inactive: 0.046	inactive: -0.021	inactive: -0.033	inactive: 0.068	inactive: 0.131	inactive: 0.055	inactive: 0.013	inactive: 0.042	inactive: -0.064
